## Small-molecule microarray binding calls

Data from the ROBIN nucleic acid binder screens, doi:10.1002/anie.202211358.

Targets (5′ to 3′):
SAM-II: SAM-II riboswitch RNA pseudoknot, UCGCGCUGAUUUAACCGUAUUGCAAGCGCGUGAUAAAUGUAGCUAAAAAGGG. About 200 hits among about 21,000 compounds.
TPP: TPP riboswitch RNA three-way junction, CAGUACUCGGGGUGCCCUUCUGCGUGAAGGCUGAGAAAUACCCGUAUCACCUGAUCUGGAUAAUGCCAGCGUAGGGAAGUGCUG. About 160 hits among about 24,000 compounds.
PreQ1: PreQ1 riboswitch RNA pseudoknot, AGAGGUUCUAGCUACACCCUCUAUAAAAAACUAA. From B. subtilis. About 170 hits among about 24,000 compounds.

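Each compound is printed as two spots on a slide made to bind it covalently, so it has no test concentration; the read-out is fluorescence of the bound, labelled oligonucleotide. For the PreQ1, TPP and SAM-II riboswitches the laboratory earlier reported (doi:10.1038/s41467-019-09493-3) 1 µM RNA, 2 h, and a rule that included a mean Z-score above 3 (spot signal-to-noise against the whole library), a score well above that on a control array, and duplicate spots agreeing (coefficient of variation under 100). The data file gives only the calls; its cut-offs may differ, and compounds hitting several targets are kept. These are primary screening calls, not affinities; a compound without a hit may have attached poorly or may still bind in solution.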 Key: active = hit, inactive = tested without a hit. Compounds were drawn at random from those tested, without regard to their results. A target missing from an entry has no call listed here.

Cc1ccc(C)c(Nc2c3c(nc4nncn24)CCC3)c1 was scored TPP: inactive; PreQ1: inactive.
Cc1ccc2c(c1)c(-c1ccccc1)c(-c1ccccc1)n2CC(O)Cn1nc(C)cc1C (stereo not shown) was scored SAM-II: inactive; TPP: inactive; PreQ1: inactive.
CCc1ccc2nc(Nc3ncc(C(C)=O)c(C)n3)nc(C)c2c1 was scored SAM-II: inactive; TPP: inactive; PreQ1: inactive.
CCOc1cc2c(cc1C=C1C(C)=C(C#N)c3nc(N)c(C#N)c(C)c31)OCO2 was scored SAM-II: inactive; TPP: inactive; PreQ1: inactive.
CC1=NN(c2ccc(C(=O)O)cc2)C(=O)C1=Cc1ccc(-c2cc(C)c(C)cc2[N+](=O)[O-])o1 was scored SAM-II: inactive; TPP: inactive; PreQ1: inactive.
C[C@]12CC[C@H]3[C@@H](CCC4=CC(=O)CC[C@@H]43)[C@@H]1CC[C@@H]2OC(=O)CCc1ccccc1 was scored SAM-II: active; TPP: inactive; PreQ1: inactive.
c1ccc2c(CCNc3ncnc4sc5c(c34)CCNC5)c[nH]c2c1 was scored SAM-II: inactive; TPP: inactive; PreQ1: inactive.
O=C(c1ccc(CNc2c(N3CCCC3)c(=O)c2=O)cc1)N1CCN(c2ccccc2)CC1 was scored TPP: inactive; PreQ1: inactive.
CCn1c(C(=O)N(C2CC2)C2CC2)cc2c3c(ncn3C)c(Nc3cc(C)n(C)n3)nc21 was scored SAM-II: inactive; TPP: inactive; PreQ1: inactive.
Cc1cc(Nc2cccc(Cl)c2)n2ncc(-c3ccccc3)c2n1 was scored TPP: inactive; PreQ1: inactive.
Cc1ccccc1NC(=O)N1CCN(C(=O)c2nonc2N)CC1 was scored TPP: inactive; PreQ1: inactive.

Repeated from the top, 2 entries:

- Cc1ccc(C)c(Nc2c3c(nc4nncn24)CCC3)c1 : TPP: inactive; PreQ1: inactive
- Cc1ccc2c(c1)c(-c1ccccc1)c(-c1ccccc1)n2CC(O)Cn1nc(C)cc1C (stereo not shown) : SAM-II: inactive; TPP: inactive; PreQ1: inactive